# Results published in PubChem BioAssay AID504444 (National Center for Advancing Translational Sciences (NCATS), 2011).
# Out of some 360,000 compounds screened, about 7,500 (2.1%) were called active. This list was built around the results that the source calls inconclusive (neither active nor inactive); the mix of calls is not that of the screen. Calls come from the whole dose curve; as a rule, active = well fitted inhibition curve with a large enough effect; inconclusive = small, poorly fitted or top-dose-only effect, or effect the other way; inactive = flat fitted curve, though single readings scatter. A potency beside an inconclusive call is a rough fit, not a confirmed value.
# Experiment: Nrf2 qHTS screen for inhibitors; note: nearly all actives have a fitted effect of over 60% in size
# Settings: A549 ARE-Fluc reporter, luciferase luminescence, 18-24 h; activity change, negative = inhibition: at 46 µM (top of the series)
# Method in brief: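 Quantitative HTS in A549 cells stably bearing an antioxidant response element-firefly luciferase construct. Inhibition of Nrf2-driven transcription was scored by luminescence after 18-24 h of compound exposure at 37 °C.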
# % is set by controls: 0 for no effect and ±100 for the full control effect; potency is the fitted concentration of half-maximal effect.
SMILES,Potency,"activity change, negative = inhibition"
Cc1cccc(-c2c(NC(=O)c3ccco3)oc3ccc(Cl)cc3c2=O)c1,"inconclusive: 16.4 µM [falling, single point]",–
CCOc1ccc(/C=N/Nc2ccccn2)cc1OC,"inconclusive: 13 µM [activator, partial curve]",–
O=C(CNc1ccc(Oc2ccccc2)cc1)N1CCOCC1,"inconclusive: 18.4 µM [activator, partial curve]",–
N#Cc1cc2c(nc1SCC(=O)O)CCCCC2,"inconclusive: 9.2 µM [activator, partial curve, poor fit]",–
CCCCCCN1C=CC(=C2C(=O)c3ccccc3C2=O)C=C1,"inconclusive: 29.1 µM [falling, single point]",–
COc1ccc(Cl)cc1N(CC(=O)NCCSCc1ccccc1)S(C)(=O)=O,"inconclusive: 1.64 µM [falling, full curve, poor fit]",–
Cc1cc(C)c2[nH]c(=O)c(CN(Cc3cccs3)C(=S)NCC3CCCO3)cc2c1 (centres undefined),"inconclusive: 29.1 µM [falling, single point]",–
COc1ccc(Cl)cc1C(=O)NNC(=O)c1cccc([N+](=O)[O-])c1,inactive,–
Cc1ccc(CNc2ccc(O)cc2)cc1,"inconclusive: 14.6 µM [falling, partial curve]",–
COc1ccccc1OCC(=O)NNC(=O)Nc1ccc(Cl)cc1,inactive,–
Cc1cc(-n2cnnn2)cc(C)c1S(=O)(=O)NCCOc1ccccc1,inactive,–
CCOc1ccc(-n2c(SCC(=O)Nc3ccc4c(c3)OCCO4)nc3c(c2=O)SCC3)cc1,"inconclusive: 6.51 µM [falling, full curve, poor fit]",–
COc1cc(OC)c(NC(=O)N2CCN3CCCCC3C2)cc1Cl (centres undefined),"inconclusive: 29.1 µM [activator, single point]",–
CCN(CC)c1ccc(/C=N/NC(=O)c2cnccn2)cc1,"inconclusive: 4.11 µM [activator, partial curve]",–
Cc1nc2c(sc3nc(N4CCOCC4)c4c(c32)CC(C)(C)OC4)c(-c2ccc(Cl)cc2)c1C(=O)O,"inconclusive: 29.1 µM [falling, single point]",–
Cc1ccc(CN2CCN(C3CCN(C(=O)c4ccc(C)cc4)CC3)C(=O)C2=O)cc1,inactive,–
CCCNC(=O)[C@H]1N2C(=O)c3c(ccc(OC)c3OC)C2SC1(C)C (some centres undefined),"inconclusive: 2.31 µM [falling, full curve, poor fit]",–
COc1ccc(Cl)cc1NC(=O)CCN1C(=O)c2ccccc2Sc2ncccc21,"inconclusive: 0.103 µM [activator, full curve, poor fit]",–
CCOC(=O)c1sc(N2C(=O)C(O)=C(C(=O)c3ccc(C)o3)C2c2ccc(OC)c(OC)c2)nc1C (centres undefined),"inconclusive: 23.1 µM [falling, single point]",–
COc1cc(CNn2nnnc2N)cc(Br)c1OCc1c(Cl)cccc1Cl,"inconclusive: 8.2 µM [falling, partial curve]",–
Cc1cc(NC(=O)CSc2nc3cc(Cl)ccc3c(=O)n2Cc2ccco2)no1,"inconclusive: 8.2 µM [falling, partial curve, poor fit]",–
Cc1c(C(=O)NCCNc2ncc(C(F)(F)F)cc2Cl)cccc1[N+](=O)[O-],"inconclusive: 14.6 µM [falling, partial curve]",–

# Some of the entries so far, with bars between the fields:
SMILES | Potency | activity change, negative = inhibition
CCOC(=O)c1sc(N2C(=O)C(O)=C(C(=O)c3ccc(C)o3)C2c2ccc(OC)c(OC)c2)nc1C (centres undefined) | inconclusive: 23.1 µM [falling, single point] | –
COc1cc(CNn2nnnc2N)cc(Br)c1OCc1c(Cl)cccc1Cl | inconclusive: 8.2 µM [falling, partial curve] | –
Cc1cc(NC(=O)CSc2nc3cc(Cl)ccc3c(=O)n2Cc2ccco2)no1 | inconclusive: 8.2 µM [falling, partial curve, poor fit] | –

# The list goes on:

SMILES,Potency,"activity change, negative = inhibition"
CC1(C(=O)NCCCNc2ncc(C(F)(F)F)cc2Cl)C=CCN1C(=O)c1ccccc1 (centres undefined),"inconclusive: 32.6 µM [activator, single point]",–
CC(=O)c1cccc(NC(=O)CN2C(=O)c3cccnc3Sc3ccccc32)c1,"inconclusive: 29.1 µM [activator, single point]",–
C=C1CN(C(C(=O)OC)C(C)C)S(=O)(=O)c2ccc(F)cc21 (centres undefined),inactive,–
CCc1ccc(NC(=O)Cn2c(=O)n(-c3ccccc3)c(=O)c3ccc(C(=O)NCc4ccc5c(c4)OCO5)cc32)cc1,"inconclusive: 9.2 µM [falling, partial curve]",–
O=Nc1c(O)n(Cc2cccc(Cl)c2)c2ccccc12,"inconclusive: 18.4 µM [falling, single point]",–
CC1(C)Cc2c(C#N)c(OCC(=O)c3ccccc3)nc(-c3ccoc3)c2CO1,inactive,–
Cc1ccc(OCC(=O)N2CCN(C(=O)c3cccc(F)c3)CC2)cc1,"inconclusive: 23.1 µM [activator, single point]",–
CC1CCC(C(C)C)C(OC(=O)Cn2c(-c3ccc(Cl)cc3)[n+](C)c3ccccc32)C1 (centres undefined),"inconclusive: 20.6 µM [falling, single point]",–
Cc1ccc(-c2csc3ncnc(SCC(=O)c4ccc5c(c4)OCCO5)c23)cc1,"inconclusive: 14.6 µM [falling, partial curve]",–
O=C(c1noc2c1CCCC2)N1CCN(c2ccc(F)cc2)CC1,"inconclusive: 0.461 µM [falling, partial curve, poor fit]",–
CC1=C(C(=O)OCc2ccccc2)C(c2cccs2)N2C(=O)CCSC2=N1 (centres undefined),"inconclusive: 23.1 µM [falling, partial curve, poor fit]",–
COc1ccc(-n2c(SCC#N)nnc2-c2ccc(NS(=O)(=O)c3ccc(C)cc3)cc2)cc1,active: 10.3 µM,–
Cc1nc(C)c(-c2csc(NCCc3ccccc3)n2)s1,"inconclusive: 32.6 µM [falling, single point]",–
CN(C)CCCN(C(=O)c1ccco1)c1nc2ccc(Cl)cc2s1,inactive,–
CCOC(=O)N1CCN(C(=O)CNC(=O)c2ccccc2F)CC1,"inconclusive: 11.6 µM [activator, partial curve]",–
O=C(Cc1ccc(F)cc1)Nc1ccc(Cl)cn1,inactive,–
CCn1c(=N)n(CC(=O)C(C)(C)C)c2ccccc21,"inconclusive: 0.517 µM [falling, partial curve, poor fit]",–
COc1ccc(C2(c3ccc(OC)cc3)NC(=O)N(CC(=O)Nc3ccccc3)C2=O)cc1,"inconclusive: 18.4 µM [falling, single point]",–
COc1ccc(C(=O)COC(=O)C(CC(C)C)N2C(=O)c3ccccc3C2=O)cc1 (centres undefined),"inconclusive: 32.6 µM [falling, single point]",–
O=C(N/N=C/c1ccc(OC(=O)c2ccccc2)cc1)c1cccnc1,"inconclusive: 32.6 µM [falling, single point]",–
CC(C)OC(=O)c1cccc(C(=O)Nc2cccc(NC(=O)c3cccc(C(=O)OC(C)C)n3)n2)n1,"inconclusive: 1.84 µM [falling, partial curve]",–
COc1ccc(Cl)cc1NC(=O)c1ncn(-c2ccccc2)n1,"inconclusive: 2.06 µM [activator, partial curve, poor fit]",–

SMILES,Potency,"activity change, negative = inhibition"
N#Cc1cn(N2CCCCC2)c(=O)[nH]c1=O,–,inconclusive: 76% [activator]
Cc1cc(C)c(C(=O)NC2CCCc3c2cnn3-c2cccc(C)c2C)o1 (centres undefined),"inconclusive: 13 µM [activator, partial curve]",–
CCCCNS(=O)(=O)c1cc(-c2nn(C)c(=O)c3ccccc23)ccc1C,"inconclusive: 18.4 µM [falling, single point]",–
COc1ccc(CCN=C(N)NS(=O)(=O)c2ccc(C)cc2)cc1,"inconclusive: 2.91 µM [falling, partial curve, poor fit]",–
Fc1ccc(-c2nnc(-c3ccc4ccccc4c3)o2)cc1,"inconclusive: 5.8 µM [activator, full curve]",–
CC(=O)Nc1nc2ccccc2n1CCOc1ccccc1,"inconclusive: 16.4 µM [falling, partial curve, poor fit]",–
COC(=O)[C@H](CC(C)C)NC(=O)c1cc2c(cn1)[nH]c1ccccc12,"inconclusive: 20.6 µM [falling, partial curve, poor fit]",–
O=c1[nH]c(N2CCOCC2)cc2ccccc12,"inconclusive: 1.64 µM [falling, partial curve, poor fit]",–
COc1ccc(N(CC(=O)N2CCCCCC2)S(C)(=O)=O)cc1Cl,"inconclusive: 4.61 µM [falling, single point]",–
CC(=O)CCC(=O)NC1CCCc2c1cnn2-c1ccc(C(C)(C)C)cc1 (centres undefined),"inconclusive: 20.6 µM [falling, single point]",–
O=C(N/N=C\c1cc2c(cc1Cl)OCO2)c1ccc(Br)s1,"inconclusive: 9.2 µM [falling, partial curve, poor fit]",–
Cc1cccc(NC(=S)NNC(=O)c2csc3c2CCCC3)c1,"inconclusive: 29.1 µM [falling, single point]",–
O=C(C[C@H]1C[C@H](C(=O)N2CCOCC2)[C@@]2(CCC3CCCC3)c3[nH]c4cc(-c5ccco5)ccc4c3CCN2C1=O)NCCC1=CCCCC1,"inconclusive: 25.9 µM [falling, single point]",–
O=C(CSc1ncnc2c1oc1ccccc12)c1cccs1,"inconclusive: 3.26 µM [activator, full curve]",–
Cc1ccccc1OCC(=O)Nc1cccc(C(=O)O)c1,"inconclusive: 1.84 µM [activator, partial curve, poor fit]",–
Nc1nc(SCc2ccccc2)c2ncn(Cc3ccccc3)c2n1,inactive,–
COc1ccc(CNS(=O)(=O)c2ccc3c(c2)CCN3C(=O)C2CCC2)cc1,"inconclusive: 23.1 µM [falling, partial curve, poor fit]",–
COc1ccc(-c2noc(CCCC(=O)NCCc3ccccc3)n2)cc1OC,active: 23.1 µM,–
CCOC(=O)N1CCN(C(=O)c2ccc(NS(=O)(=O)c3ccc(F)cc3)cc2)CC1,active: 16.4 µM,–
COc1ccc(Cn2ccc3nc(C)c(C(=O)N4CCN(c5ccccc5OC)CC4)cc3c2=O)cc1,"inconclusive: 25.9 µM [falling, partial curve, poor fit]",–
